The values below come from PubChem BioAssay AID493014 (National Center for Advancing Translational Sciences (NCATS), 2011).

The list shows a part of the results. The main result of the screen is listed elsewhere. These columns were measured beside it and carry no call. Most of these compounds were active or inconclusive in the main read-out, so they are no random draw. The note in brackets gives the kind of curve behind each potency; many fits are weak.

The nature of this assay: qHTS Assay to Find Inhibitors of Chronic Active B-Cell Receptor Signaling. As to conditions: ABC-DLBCL IkBa-CBG/CBR reporter, luminescence ratio (green luciferase fused to IkBa over red control in TMD8 lymphoma cells), 4 h. In outline: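 Compounds up to 46 uM were incubated four hours with TMD8 cells whose green CBG68 luciferase is fused to IkappaBalpha; red CBR luminescence normalised the signal, and concentration-effect curves were fitted to fusion, red and ratio data.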

Setting [1] is: measured here: CBR red luminescence, cell number.
The mark [2] stands for this setting: measured here: IkBa-CBG green luminescence.

One may read the AC50 as the midpoint of the concentration-response curve, whichever way the signal moves. Consider `COc1ccc(C(=O)Nc2cccc(NC(C)=O)c2)cc1OC`, for which the AC50 under setting [1] was 18.4 µM [falling, partial curve, poor fit]. On to `CSc1ccccc1C(=O)Nc1nc2ccccc2[nH]1`, for which the AC50 under setting [1] is 10 µM [falling, partial curve, poor fit]. For the molecule `Cc1csc(NC(=O)CSc2nnc(-c3ccncc3)o2)n1`, the AC50 under setting [1] is 10.3 µM [falling, partial curve, poor fit].

Consider `CN(c1ccc(C(=O)N2CCCCC2)cc1)S(C)(=O)=O`, for which the AC50 under setting [1] was 32.6 µM [rising, single point].

Regarding `O=C(c1ccc([N+](=O)[O-])cc1)n1nc(-c2ccccc2)nc1NCc1ccccc1`, the half-maximal activity concentration (AC50) under setting [1] was 14.1 µM [falling, partial curve]. Turning to `CCCn1nnc(NC(=S)NC(=O)c2ccc(-c3ccc(Br)cc3)o2)n1`, the half-maximal activity concentration (AC50) under setting [2] was 3.55 µM [falling, full curve]. Consider `O=C(NCCc1ccccn1)c1ccc(OC(F)F)cc1`, for which the AC50 under setting [1] was 12.6 µM [falling, partial curve].

Take `C(=N\Nc1nc(Nc2ccccc2)nc(N2CCOCC2)n1)/c1c[nH]c2ccccc12`: the AC50 under setting [1] is 20 µM [falling, partial curve, poor fit].

Consider `CC(C)C[C@@H](C(=O)NCc1ccco1)N1C(=O)N2CCc3c([nH]c4ccccc34)[C@@]2(C)C1=O`, for which the AC50 under setting [1] is 35.5 µM [falling, single point].

Take `CC(Sc1nc2ccccc2c(=O)n1CC1CCCO1)C(=O)Nc1ccc(S(N)(=O)=O)cc1` (configuration not stated): under setting [1], the AC50 was 23.1 µM [falling, partial curve]. On the same count and under the same terms, the figure for `O=C(CCc1ccccc1)N(Cc1cccnc1)c1nc2ccc(F)cc2s1` is 35.5 µM [falling, single point]. Consider `Cc1ccccc1Nc1nc(N)c2ccccc2n1`, for which the concentration at half-maximal activity (AC50) under setting [1] is 31.6 µM [falling, single point].

`COC(=O)c1c(NC(=O)CSc2nncs2)sc2c1CCCCC2`: the AC50 under setting [1] is 7.94 µM [falling, partial curve, poor fit]. Turning to `Cc1ccc(O)c(C(CC(=O)NC(C)C)c2ccccc2)c1` (configuration not stated), the AC50 under setting [1] is 11.2 µM [rising, partial curve, poor fit]. Regarding `COc1ccc(/C=C2/SC(=S)N(CCCC(=O)Nc3cccc(O)c3)C2=O)cc1`, the AC50 under setting [1] was 2.24 µM [falling, full curve]. On the same count and under the same terms, to `CCn1nc(C)c(Br)c1-c1nc(-c2cccc(C)c2)no1` belongs 1.78 µM [rising, full curve]. As for `Cc1cccc(N(CC(=O)NC2CCCC2)C(=O)CCCC(=O)Nc2ccccn2)c1`, the AC50 under setting [1] is 3.66 µM [falling, partial curve, poor fit]. The same measure, in the same setting: to `NS(=O)(=O)c1ccc(CCNC(=O)CSc2nc3ccccc3c(=O)n2CCC(=O)N2CCCCC2)cc1` belongs 20 µM [rising, single point]; to `CCCn1c(=O)c(C(=O)NNC(=O)c2ccccc2Cl)c(O)c2ccccc21`, 3.55 µM [falling, partial curve]. Take `COCCOC(=O)c1c(N)n(CCCN2CCOCC2)c2nc3ccccc3nc12`: the AC50 under setting [1] is 15.8 µM [falling, single point]. As for `O=C(CCc1ccc(S(=O)(=O)NCc2ccccc2)cc1)NCc1ccc2c(c1)OCO2`, under setting [1], the AC50 is 6.51 µM [falling, single point].

On to `CC1CCN(c2oc(-c3ccccc3Cl)nc2C#N)CC1`, for which the AC50 under setting [1] was 5.62 µM [rising, single point]. With `O=C(N/N=C/c1ccccc1C(F)(F)F)c1ccc2nc[nH]c2c1`, the AC50 under setting [1] was 0.708 µM [falling, full curve, poor fit]. With `Cc1nc(-c2cccc(C(F)(F)F)c2)sc1C(=O)O`, the AC50 by setting is: under setting [1], 12.6 µM [falling, partial curve]; under setting [2], 6.31 µM [rising, full curve, poor fit]. As for `Cc1ccc(OCc2cc(C(=O)NC(C)Cc3cccnc3)no2)cc1C` (configuration not stated), the AC50 under setting [1] is 25.1 µM [falling, single point]. For `CCOC(=O)c1cnc(SCc2nc(N)nc(Nc3ccc(C)cc3)n2)nc1N`, under setting [1], the AC50 was 0.13 µM [rising, full curve, poor fit].

In the case of `O=C(COc1ccc2ccc(=O)oc2c1)NC1CCCCC1`, under setting [1], the AC50 was 29.1 µM [rising, single point].

`Cc1c(OC(C)C(=O)N[C@@H](Cc2ccccc2)C(=O)O)ccc2c3c(c(=O)oc12)CCCC3` (some centres not stated): the AC50 under setting [1] was 11.2 µM [falling, partial curve, poor fit]. Turning to `CCC(C)C(NC(=O)C1CCC(C)CC1)C(=O)Nc1cc(OC)ccc1OC` (configuration not stated), the AC50 reads like this: under setting [1], 20.6 µM [rising, partial curve]; under setting [2], 32.6 µM [falling, partial curve, poor fit]. `COc1cccc(/C=N/n2nnnc2N)c1O`: the AC50 under setting [1] was 15.8 µM [falling, single point].

As to `CN(CC(=O)Nc1ccc(Cl)c(C(F)(F)F)c1)C(=O)C1CC(=O)N(Cc2ccco2)C1` (configuration not stated), the AC50 under setting [1] was 0.651 µM [rising, full curve, poor fit]. As to `COC(=O)C1=C(C)NC(C)=C(C(=O)OCC2CCCO2)C1c1ccc(Cl)c([N+](=O)[O-])c1` (configuration not stated), the concentration at half-maximal activity (AC50) under setting [1] is 28.2 µM [falling, single point].

As to `Cc1nc2cc(S(=O)(=O)N(C)C)ccc2n1-c1ccccc1`, the AC50 under setting [1] is 35.5 µM [rising, single point]. On to `COC(C[C@@H]1O[C@@H]1[C@@H](O)[C@H](C)OCc1ccccc1)OC`, for which, under setting [1], the AC50 was 5.62 µM [falling, single point]. As to `O=C(N/N=C/C(Br)=C\c1ccccc1)c1ccc2nc[nH]c2c1`, the AC50 by setting is: under setting [1], 5.17 µM [falling, single point]; under setting [2], 25.9 µM [falling, partial curve, poor fit]. `S=c1[nH]c(-c2ccc(Cl)cc2)cs1`: under setting [1], the AC50 was 1.78 µM [rising, full curve]. On to `Cc1cc(C(=O)COC(=O)c2ccccc2O)c(C)n1CC1CCCO1` (configuration not stated), for which the half-maximal activity concentration (AC50) under setting [1] is 0.164 µM [rising, full curve, poor fit]. On to `O=C(O)C1CCCCC1C(=O)Nc1ccc(-c2ccccc2)cc1` (configuration not stated), for which the AC50 under setting [1] is 2.24 µM [rising, full curve, poor fit]. `O=C(CSC1=NCCS1)Nc1nc2ccccc2s1`: the AC50 under setting [1] is 7.31 µM [falling, partial curve, poor fit]. For `Nc1ccc(C(=O)OCc2nc3cc4ccccc4cc3[nH]2)cc1`, the AC50 under setting [1] is 3.98 µM [falling, partial curve].

As for `COc1cccc(C(=O)Nc2cccnc2)c1`, the AC50 under setting [1] was 29.1 µM [falling, partial curve, poor fit]. On to `O=[N+]([O-])c1ccc(N(c2ccccc2)c2ccccc2)cc1`, for which the concentration at half-maximal activity (AC50) under setting [1] was 7.08 µM [rising, partial curve, poor fit]. With `CCOC(=O)c1c(CSc2ccccc2)n(C)c2ccc(O)c(CN3CCOCC3)c12`, under setting [1], the AC50 was 35.5 µM [falling, single point]. In the case of `CSCCOC(=O)C1=C(C)NC(=O)NC1c1ccc2c(c1)OCO2` (configuration not stated), the AC50 under setting [1] is 35.5 µM [rising, partial curve, poor fit]. With `CC(=O)c1ccc(N2CCN(C(=O)/C=C/c3ccc(S(=O)(=O)NCc4ccco4)cc3)CC2)cc1`, the AC50 under setting [1] is 5.01 µM [falling, partial curve, poor fit]. As to `COc1ccccc1NC(=S)N/N=C1\CC(C)(C)Oc2ccc(O)cc21`, the AC50 under setting [1] was 25.1 µM [falling, single point] and the AC50 under setting [2] was 3.16 µM [falling, partial curve, poor fit]. As for `COc1ccc(C2CC(c3ccncc3)=NN2c2ccc(S(N)(=O)=O)cc2)cc1` (configuration not stated), under setting [2], the AC50 was 20.6 µM [falling, partial curve]. As to `CN(C)c1ccc(C(CC(=O)O)C(=O)O)cc1` (configuration not stated), under setting [1], the AC50 is 2.51 µM [rising, full curve, poor fit]. The same measure, in the same setting: to `CCC1S/C(=C(\C#N)C(=O)NCc2ccco2)N(c2ccc(F)cc2)C1=O` (configuration not stated) belongs 31.6 µM [falling, partial curve, poor fit]; to `C/C(=N\Nc1nc(N)cc(Cl)n1)c1ccc(F)cc1`, 1.58 µM [rising, partial curve]; to `Cc1ccc2c(CC(=O)NNC(=O)c3ccccc3O)coc2c1`, 29.1 µM [falling, single point]. For `O=C(NNc1cc(N2CCOCC2)nc(N2CCOCC2)n1)C12CC3CC(CC(C3)C1)C2`, under setting [1], the AC50 was 32.6 µM [rising, single point].

`COc1cc(C(=O)OCc2cc(=O)n3ccsc3n2)ccc1OC(C)C`: under setting [1], the half-maximal activity concentration (AC50) was 6.51 µM [rising, single point]. As for `Cc1ccc(C2=NN(C(=O)c3cccs3)C(c3ccccc3O)C2)cc1` (configuration not stated), under setting [1], the half-maximal activity concentration (AC50) was 7.08 µM [falling, full curve, poor fit].

As to `CCOC(=O)c1cnn(-c2cccc(Cl)c2)c1N`, the AC50 under setting [1] is 2.31 µM [rising, partial curve]. On to `COc1ccc(OC)c(Nc2ncnc3c2cnn3-c2cccc(C)c2)c1`, for which the AC50 under setting [1] is 3.26 µM [falling, full curve].

Take `CN(Cc1ccccc1N1CCCC1)C(=O)c1cc2ccccc2o1`: the AC50 under setting [1] is 0.651 µM [falling, partial curve, poor fit]. The same measure, in the same setting: the figure for `Cc1ccc(SCC(=O)Nc2ccc(N3CCN(C)CC3)c(F)c2)cc1` is 14.1 µM [falling, partial curve, poor fit]; for `CNC(=S)N/N=C(\C)c1ccc(-n2ccnc2)cc1` it is 23.1 µM [falling, partial curve]. As for `CCC(=NCCc1c(C)[nH]c2ccc(C)cc12)C1=C(O)CC(c2ccccc2)CC1=O` (configuration not stated), the AC50 was 25.9 µM [rising, partial curve, poor fit] under setting [1] and 23.1 µM [falling, partial curve, poor fit] under setting [2]. Turning to `O=C(CCCNC(=O)/C(=C/c1ccc(Br)cc1)NC(=O)c1ccccc1)OCc1ccccc1`, under setting [1], the AC50 was 16.4 µM [rising, single point]. The same measure, in the same setting: to `Cc1ccn2cc(C(=O)NCc3ccco3)nc2c1` belongs 10 µM [falling, partial curve, poor fit].
